Measurements reported in PMC10214474.
These are yes or no findings as the source states them, for the method shown. In cells and extracts the contact can be indirect. Some entries that bind do so weakly or less than the wild type.

Protein sequences, listed by entry. Tags and fused reporters are not part of them. Lines headed by an entry give the natural chain unless they say otherwise; changes in a name come on top.
UniProt P63073: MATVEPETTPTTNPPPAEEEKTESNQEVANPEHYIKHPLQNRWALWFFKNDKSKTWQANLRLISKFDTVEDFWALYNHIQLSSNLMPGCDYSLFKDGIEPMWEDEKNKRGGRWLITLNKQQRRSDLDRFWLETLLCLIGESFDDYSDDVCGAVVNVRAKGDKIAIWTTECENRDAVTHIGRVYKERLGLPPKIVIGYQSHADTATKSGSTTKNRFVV
UniProt Q7TMB8: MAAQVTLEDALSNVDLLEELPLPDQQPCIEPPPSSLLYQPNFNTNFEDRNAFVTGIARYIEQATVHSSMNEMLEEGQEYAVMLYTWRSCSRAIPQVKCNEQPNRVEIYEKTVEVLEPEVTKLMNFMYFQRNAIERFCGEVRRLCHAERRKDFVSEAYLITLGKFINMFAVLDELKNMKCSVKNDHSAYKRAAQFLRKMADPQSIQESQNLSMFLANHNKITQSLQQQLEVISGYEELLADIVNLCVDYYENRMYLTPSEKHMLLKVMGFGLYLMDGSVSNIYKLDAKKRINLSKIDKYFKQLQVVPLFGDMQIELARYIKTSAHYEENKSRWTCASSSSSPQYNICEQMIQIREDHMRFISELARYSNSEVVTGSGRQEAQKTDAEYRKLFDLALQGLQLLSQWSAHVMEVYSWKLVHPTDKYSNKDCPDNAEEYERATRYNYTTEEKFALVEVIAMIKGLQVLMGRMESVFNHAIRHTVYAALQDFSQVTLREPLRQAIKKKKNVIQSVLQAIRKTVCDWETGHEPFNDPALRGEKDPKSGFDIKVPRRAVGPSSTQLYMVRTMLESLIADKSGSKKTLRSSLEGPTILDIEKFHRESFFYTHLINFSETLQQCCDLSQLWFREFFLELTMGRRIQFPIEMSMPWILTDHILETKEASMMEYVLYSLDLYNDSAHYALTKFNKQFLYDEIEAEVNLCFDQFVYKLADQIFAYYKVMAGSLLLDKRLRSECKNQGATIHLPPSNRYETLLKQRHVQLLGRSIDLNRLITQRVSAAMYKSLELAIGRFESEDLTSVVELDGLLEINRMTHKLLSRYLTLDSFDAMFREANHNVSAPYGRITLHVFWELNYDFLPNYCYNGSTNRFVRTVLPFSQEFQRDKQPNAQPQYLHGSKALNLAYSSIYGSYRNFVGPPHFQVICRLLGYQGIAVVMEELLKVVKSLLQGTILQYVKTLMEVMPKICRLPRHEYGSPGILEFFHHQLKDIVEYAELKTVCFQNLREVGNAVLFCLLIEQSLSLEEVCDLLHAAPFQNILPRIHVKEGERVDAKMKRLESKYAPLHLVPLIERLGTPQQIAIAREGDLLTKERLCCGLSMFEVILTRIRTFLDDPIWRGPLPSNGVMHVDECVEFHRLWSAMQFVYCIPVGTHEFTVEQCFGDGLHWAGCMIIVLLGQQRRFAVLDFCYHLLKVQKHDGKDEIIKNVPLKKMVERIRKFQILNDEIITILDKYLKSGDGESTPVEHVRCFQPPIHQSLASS

B1: eIF4E-binding protein 2 (4E-BP2) (protein, UniProt P70445 1-120)
chain: MSASAGGSHQPSQSRAIPTRTVAISDAAQLPQDYCTTPGGTLFSTTPGGTRIIYDRKFLLDRRNSPMAQTPPCHLPNIPGVTSPGALIEDSKVEVNNLNNLNNHDRKHAVGDEAQFEMDI

Key:
[1] = biological target: eIF4E Ser209Ala, from homozygous Eif4e^S209A knockin mice (Eif4e^ki/ki) (mouse (endogenous in dentate gyrus)) (UniProt P63073); experiment: pull-down; m^7GTP cap-pulldown: 250-300 ug dentate gyrus lysate with 30 ul 7-methyl GTP-agarose beads, 90 min at 4 °C, three washes, bound proteins immunoblotted and normalised to m^7GTP-bound eIF4E; naive mice (basal) and 40 min post-HFS (ipsilateral HFS-treated DG against contralateral control)
[2] = biological target: eukaryotic initiation factor 4E (eIF4E), wild-type mice (Eif4e^+/+) (mouse (endogenous in dentate gyrus)) (UniProt P63073); experiment: as above

Molecule | binding [1] | binding [2]
cytoplasmic FMRP interacting protein-1 (CYFIP1) (from UniProt Q7TMB8 1-1253) | binds | binds
B1 | binds | binds
